From publication PMC13215057
No constants are given. Whether binding was seen depends on the method and setting. Binding seen in cells or lysates may run through a third protein. Some entries that bind do so weakly or less than the wild type.

By UniProt entry, the sequences of proteins in these tests, tags left out. Residues count along the entry.
UniProt Q9Z1Y3, residues 160-906: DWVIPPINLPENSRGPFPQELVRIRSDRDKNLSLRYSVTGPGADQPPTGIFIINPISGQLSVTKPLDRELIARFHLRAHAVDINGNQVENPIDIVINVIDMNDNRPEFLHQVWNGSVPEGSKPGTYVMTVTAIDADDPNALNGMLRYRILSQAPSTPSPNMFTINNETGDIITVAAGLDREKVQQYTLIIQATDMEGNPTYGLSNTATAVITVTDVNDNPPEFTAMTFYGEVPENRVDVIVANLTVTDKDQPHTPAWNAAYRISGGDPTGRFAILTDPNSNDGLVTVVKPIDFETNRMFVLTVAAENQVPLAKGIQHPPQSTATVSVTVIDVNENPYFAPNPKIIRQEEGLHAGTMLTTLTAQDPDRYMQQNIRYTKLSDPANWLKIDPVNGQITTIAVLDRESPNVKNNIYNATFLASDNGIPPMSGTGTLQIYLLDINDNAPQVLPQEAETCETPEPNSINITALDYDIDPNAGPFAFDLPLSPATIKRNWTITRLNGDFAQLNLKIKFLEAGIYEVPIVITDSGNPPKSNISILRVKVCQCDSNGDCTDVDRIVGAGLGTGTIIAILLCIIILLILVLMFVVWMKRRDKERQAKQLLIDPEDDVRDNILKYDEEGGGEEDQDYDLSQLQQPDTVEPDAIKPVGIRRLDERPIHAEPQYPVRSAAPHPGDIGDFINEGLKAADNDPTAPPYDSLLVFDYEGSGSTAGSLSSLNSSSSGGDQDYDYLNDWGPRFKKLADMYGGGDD

Biological target: N-cadherin (endogenous, Can 10 cells) (rat (endogenous in Can 10)) (UniProt Q9Z1Y3)
Experiment: cross-linking + co-IP; ReCLIP of endogenous proteins: Can 10 cells treated with 0.5 mM DSP 30 min at RT, lysed in RIPA buffer, precipitated with control IgG, anti-E-cadherin or anti-N-cadherin antibody on protein G Sepharose 2 h at 4°C, eluted with reducing agents, immunoblot

binding: binds
B1: ARVCF (endogenous, Can 10 cells) (protein, UniProt B4F7F3 1-973)
chain: MEDCNVHSAASILASVKEQEARFERLTRALEQERRHVALQLERAQQPGMSSGGMVGSGQPLPMAWQQLVLQEQSPGSQASLATMPEAPEVLEETVTVEEDPGTPTSHVSIVTSEDGTTRRTETKVTKTVKTVTTRTVRQVPLGPDGLPLLDGGPPLGSFADGPLDRHYVLRGGGPAATLSRAYLSSGGGFPDGPEPRDIPSYGSLSRGLGVRPPRTGLLGPGPGDGCFTLPGRREAFPMGSESGPPSGRSLPEHFQAEPYGLEDDTRSLAADDEGGPDLEPDYSTATRRRPEYGRGLRARALEDTADDTGELVEERPPFPAATAPLAQPERGSLGSLDRVVRRSPSVDSTRKEPRWRDPELPEVLAMLRHPVDPVKANAAAYLQHLCFENEGIKRRVRQLRGLPLLVALLDHPRAEVRRRACGALRNLSYGRDADNKAAIRDCGGVPALVRLLRAARDNEVRELVTGTLWNLSSYEPLKMVIIDHGLQTLTHEVIVPHSGWEREPNEDSKPRDAEWTTVFKNTSGCLRNVSSDGAEARRRLRECEGLVDALLHALQSAVGRKDTDNKSVENCVCIMRNLSYHVHKEVPGADRYQEVEPGIPGSAATSQRRRKDDASCFGGKKAKGKKDAEADRNFDTLDLPKRTEAAKGFELLYQPEVVRLYLSLLTESRNFNTLEAAAGALQNLSAGNWMWATYIRATVRKERGLPVLVELLQSETDKVVRAVAIALRNLSLDQRNKDLIGSYAMTELVRNVRNAQAPAHPSAHLEEDTVVAVLNTIHEIVSDSLDNARSLLQARGVPALVALVASSQSVREAKAASHVLQTVWSYKELRGALQRDGWTKAHFQSASTAKGPKGTPNSGGFDDSTLPLVDKNLDGEKSTTRDVIPMDTLGPDGYSTVDRRERRTLGSDSIGDSSEKELLKGPGPAVCSSDHMEVIGRGPSGTDPVLGPGAPPFCVGLAKPLVYLALPSSLLS
